Measured values published in the supplement of paper PMC10849652.
Some of the results follow.

Protein sequences, listed by entry. Tags and fused reporters are not part of them. Lines headed by an entry give the natural chain unless they say otherwise; changes in a name come on top.
UniProt P49675, whole entry, looked up: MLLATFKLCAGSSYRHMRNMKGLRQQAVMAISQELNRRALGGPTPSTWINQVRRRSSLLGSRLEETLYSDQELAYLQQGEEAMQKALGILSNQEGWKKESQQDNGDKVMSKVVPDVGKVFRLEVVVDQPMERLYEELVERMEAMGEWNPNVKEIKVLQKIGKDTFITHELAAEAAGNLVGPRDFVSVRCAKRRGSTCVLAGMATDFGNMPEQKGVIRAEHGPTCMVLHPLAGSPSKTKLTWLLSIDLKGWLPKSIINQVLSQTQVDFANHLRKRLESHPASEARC
UniProt P81877: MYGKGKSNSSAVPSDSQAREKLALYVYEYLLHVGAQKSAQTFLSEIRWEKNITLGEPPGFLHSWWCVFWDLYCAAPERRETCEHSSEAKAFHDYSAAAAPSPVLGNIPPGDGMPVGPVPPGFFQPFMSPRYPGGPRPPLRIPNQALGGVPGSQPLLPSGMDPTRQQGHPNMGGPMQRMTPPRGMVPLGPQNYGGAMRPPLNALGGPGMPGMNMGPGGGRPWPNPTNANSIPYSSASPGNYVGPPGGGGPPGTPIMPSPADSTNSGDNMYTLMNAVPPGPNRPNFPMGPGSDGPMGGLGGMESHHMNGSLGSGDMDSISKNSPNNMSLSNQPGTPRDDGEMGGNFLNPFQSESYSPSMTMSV
UniProt P09132: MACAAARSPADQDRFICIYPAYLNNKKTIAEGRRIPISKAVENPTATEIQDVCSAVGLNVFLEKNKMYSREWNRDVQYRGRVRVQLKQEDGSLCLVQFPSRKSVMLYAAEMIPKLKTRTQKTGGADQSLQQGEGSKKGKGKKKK
UniProt Q8N3U4: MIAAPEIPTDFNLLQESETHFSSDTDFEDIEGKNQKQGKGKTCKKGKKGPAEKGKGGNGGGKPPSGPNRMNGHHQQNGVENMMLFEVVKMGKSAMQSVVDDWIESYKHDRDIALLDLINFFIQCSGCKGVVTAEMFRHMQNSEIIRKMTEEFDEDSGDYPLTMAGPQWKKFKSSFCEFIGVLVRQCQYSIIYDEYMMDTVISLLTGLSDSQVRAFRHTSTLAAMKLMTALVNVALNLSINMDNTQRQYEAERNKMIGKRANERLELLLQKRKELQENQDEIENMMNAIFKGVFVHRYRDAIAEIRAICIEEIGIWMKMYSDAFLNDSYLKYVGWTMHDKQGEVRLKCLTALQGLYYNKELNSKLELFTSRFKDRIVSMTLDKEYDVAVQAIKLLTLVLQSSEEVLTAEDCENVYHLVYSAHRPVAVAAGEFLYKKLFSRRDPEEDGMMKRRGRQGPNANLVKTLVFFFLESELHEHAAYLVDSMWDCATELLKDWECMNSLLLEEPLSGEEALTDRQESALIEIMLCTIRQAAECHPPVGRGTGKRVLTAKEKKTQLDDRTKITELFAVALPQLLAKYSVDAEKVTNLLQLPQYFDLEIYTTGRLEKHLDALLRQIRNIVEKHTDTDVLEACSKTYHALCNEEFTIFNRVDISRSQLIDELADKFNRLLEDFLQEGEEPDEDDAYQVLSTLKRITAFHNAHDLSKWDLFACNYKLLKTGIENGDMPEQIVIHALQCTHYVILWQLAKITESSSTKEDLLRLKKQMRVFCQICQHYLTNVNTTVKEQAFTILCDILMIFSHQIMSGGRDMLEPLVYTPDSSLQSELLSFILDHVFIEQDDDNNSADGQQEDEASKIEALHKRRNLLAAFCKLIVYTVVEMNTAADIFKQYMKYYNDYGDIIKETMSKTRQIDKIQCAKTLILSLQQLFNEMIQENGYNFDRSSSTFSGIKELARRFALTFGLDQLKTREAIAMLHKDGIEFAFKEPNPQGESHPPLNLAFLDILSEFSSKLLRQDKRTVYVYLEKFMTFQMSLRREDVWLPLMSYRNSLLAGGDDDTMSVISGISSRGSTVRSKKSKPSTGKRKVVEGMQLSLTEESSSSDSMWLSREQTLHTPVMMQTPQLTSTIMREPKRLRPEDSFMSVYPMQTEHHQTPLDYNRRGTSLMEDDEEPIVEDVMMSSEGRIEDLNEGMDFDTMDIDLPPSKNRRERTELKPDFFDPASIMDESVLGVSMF
UniProt Q8N5C6: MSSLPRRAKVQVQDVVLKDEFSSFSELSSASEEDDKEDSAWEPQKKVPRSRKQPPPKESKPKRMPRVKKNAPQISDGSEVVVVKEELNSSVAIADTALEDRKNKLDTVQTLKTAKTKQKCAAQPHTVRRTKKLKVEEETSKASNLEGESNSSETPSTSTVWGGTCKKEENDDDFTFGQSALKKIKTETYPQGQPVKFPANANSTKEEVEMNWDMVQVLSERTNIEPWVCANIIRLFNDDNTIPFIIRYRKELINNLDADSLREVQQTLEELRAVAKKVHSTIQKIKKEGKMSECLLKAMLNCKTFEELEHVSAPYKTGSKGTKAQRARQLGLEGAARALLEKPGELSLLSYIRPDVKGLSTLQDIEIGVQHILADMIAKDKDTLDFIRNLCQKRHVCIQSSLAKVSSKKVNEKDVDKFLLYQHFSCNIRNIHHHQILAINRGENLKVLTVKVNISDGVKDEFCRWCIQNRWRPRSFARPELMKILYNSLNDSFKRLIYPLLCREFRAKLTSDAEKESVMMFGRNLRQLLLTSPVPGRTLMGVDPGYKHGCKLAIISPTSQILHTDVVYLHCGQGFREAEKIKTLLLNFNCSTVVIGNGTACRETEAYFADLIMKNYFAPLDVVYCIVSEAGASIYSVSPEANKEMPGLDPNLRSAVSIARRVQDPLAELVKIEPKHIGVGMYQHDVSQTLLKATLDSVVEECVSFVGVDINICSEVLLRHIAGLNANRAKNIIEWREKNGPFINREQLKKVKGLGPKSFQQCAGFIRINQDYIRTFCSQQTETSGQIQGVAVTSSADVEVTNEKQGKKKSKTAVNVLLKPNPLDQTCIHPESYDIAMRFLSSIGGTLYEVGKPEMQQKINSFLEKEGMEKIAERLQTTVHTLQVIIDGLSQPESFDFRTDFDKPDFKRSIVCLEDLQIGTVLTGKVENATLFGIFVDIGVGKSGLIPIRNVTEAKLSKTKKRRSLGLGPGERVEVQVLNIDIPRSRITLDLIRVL
UniProt Q96JI7: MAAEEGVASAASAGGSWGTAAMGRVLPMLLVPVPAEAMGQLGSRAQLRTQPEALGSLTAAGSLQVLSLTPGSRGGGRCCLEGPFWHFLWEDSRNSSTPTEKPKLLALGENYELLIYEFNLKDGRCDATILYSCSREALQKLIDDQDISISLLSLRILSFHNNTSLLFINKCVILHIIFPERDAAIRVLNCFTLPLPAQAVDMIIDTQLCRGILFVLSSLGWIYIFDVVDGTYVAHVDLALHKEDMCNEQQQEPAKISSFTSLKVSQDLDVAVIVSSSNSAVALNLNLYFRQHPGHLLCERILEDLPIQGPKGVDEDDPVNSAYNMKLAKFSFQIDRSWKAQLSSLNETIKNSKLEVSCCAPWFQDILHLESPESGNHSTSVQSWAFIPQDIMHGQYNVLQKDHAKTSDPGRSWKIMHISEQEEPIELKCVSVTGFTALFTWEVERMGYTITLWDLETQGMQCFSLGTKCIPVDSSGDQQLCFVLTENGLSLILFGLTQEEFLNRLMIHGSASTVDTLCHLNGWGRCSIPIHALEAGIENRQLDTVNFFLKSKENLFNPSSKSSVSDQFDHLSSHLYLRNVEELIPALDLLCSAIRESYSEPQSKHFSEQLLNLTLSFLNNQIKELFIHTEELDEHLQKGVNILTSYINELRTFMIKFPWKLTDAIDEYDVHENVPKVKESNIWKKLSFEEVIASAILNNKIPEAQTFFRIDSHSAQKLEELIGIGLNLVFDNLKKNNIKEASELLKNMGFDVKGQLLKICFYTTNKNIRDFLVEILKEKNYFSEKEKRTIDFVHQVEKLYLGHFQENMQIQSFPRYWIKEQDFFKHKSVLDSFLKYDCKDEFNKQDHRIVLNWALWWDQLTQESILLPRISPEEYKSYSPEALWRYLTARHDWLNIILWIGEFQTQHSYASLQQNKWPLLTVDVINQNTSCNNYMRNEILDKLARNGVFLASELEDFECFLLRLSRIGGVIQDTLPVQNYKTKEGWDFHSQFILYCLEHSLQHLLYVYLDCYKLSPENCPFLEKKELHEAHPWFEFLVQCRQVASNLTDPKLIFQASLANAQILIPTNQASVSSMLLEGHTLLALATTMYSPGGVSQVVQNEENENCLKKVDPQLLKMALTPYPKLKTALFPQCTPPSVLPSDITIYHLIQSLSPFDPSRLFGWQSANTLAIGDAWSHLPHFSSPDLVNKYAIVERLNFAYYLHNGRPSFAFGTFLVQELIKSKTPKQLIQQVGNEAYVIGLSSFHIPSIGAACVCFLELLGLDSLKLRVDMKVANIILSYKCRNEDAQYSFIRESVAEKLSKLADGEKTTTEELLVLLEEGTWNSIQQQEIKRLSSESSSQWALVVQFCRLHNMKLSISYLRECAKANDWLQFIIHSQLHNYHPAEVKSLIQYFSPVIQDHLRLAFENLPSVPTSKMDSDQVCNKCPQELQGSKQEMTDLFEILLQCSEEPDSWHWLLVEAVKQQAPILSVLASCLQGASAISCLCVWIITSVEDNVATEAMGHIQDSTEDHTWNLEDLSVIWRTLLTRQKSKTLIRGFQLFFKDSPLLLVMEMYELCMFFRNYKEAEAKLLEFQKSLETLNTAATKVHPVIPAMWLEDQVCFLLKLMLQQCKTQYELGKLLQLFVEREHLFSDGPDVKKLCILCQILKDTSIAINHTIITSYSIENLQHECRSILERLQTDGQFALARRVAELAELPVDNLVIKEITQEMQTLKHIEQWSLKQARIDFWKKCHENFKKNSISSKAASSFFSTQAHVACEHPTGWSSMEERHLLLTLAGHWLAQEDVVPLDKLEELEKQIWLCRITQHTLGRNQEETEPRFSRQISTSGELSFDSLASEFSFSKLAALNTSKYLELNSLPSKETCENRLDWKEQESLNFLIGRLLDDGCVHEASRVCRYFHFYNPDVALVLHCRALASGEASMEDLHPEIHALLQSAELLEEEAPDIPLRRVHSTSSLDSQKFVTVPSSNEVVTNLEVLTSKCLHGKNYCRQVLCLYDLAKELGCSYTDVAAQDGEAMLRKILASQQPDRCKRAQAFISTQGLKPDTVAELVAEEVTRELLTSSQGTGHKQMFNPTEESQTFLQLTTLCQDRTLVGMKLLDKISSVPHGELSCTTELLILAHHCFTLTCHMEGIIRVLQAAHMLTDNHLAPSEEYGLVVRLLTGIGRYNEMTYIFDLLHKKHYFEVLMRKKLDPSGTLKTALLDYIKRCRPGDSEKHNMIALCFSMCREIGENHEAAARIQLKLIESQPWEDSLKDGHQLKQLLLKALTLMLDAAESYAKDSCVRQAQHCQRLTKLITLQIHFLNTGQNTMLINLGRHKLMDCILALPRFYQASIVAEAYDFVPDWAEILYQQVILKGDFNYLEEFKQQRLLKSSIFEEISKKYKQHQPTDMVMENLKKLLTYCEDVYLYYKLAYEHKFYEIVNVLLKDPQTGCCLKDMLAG
UniProt Q8WW59: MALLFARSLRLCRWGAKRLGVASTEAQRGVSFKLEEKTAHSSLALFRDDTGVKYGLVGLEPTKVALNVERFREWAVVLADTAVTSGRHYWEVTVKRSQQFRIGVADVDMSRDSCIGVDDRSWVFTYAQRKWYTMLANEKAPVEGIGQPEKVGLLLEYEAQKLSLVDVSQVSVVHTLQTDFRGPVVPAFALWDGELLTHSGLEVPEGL

Legend:
Assay in all cases: log2 fold change, soluble protein after heating vs DMSO (PISA); higher = thermal stabilisation; K562 lysate, 10 uM; active = over 0.2 and 3.5 SD of the protein, either way, in both replicates (recomputed)
[1] = compound: NCC(=O)Nc1ccc(-n2nc(C(F)(F)F)cc2-c2ccc3c(ccc4ccccc43)c2)cc1
Outline: (§1)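 A 30 min treatment with 10 μM compound was applied to crude K562 extract at 1 mg/mL protein in PBS pH 7.4 with 1 mM MgCl2. Heating for 3 min spanned 48°C-58°C, after which aliquots were pooled, adjusted to 0.5% NP-40 at 4°C and spun at 21,000xg for 90 min. TMTpro 16plex LC-MS/MS of the supernatant, with channel sums equalised, gave values recorded as log-two fold change in thermal stability against solvent controls, from duplicates.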

vorinostat = compound: O=C(CCCCCCC(=O)Nc1ccccc1)NO [vorinostat]
Outline: as §1

silmitasertib = compound: O=C(O)c1ccc2c(c1)nc(Nc1cccc(Cl)c1)c1ccncc12 [silmitasertib]
Outline: as §1

[2] = compound: O=C1NC(=O)C(c2cnc3ccccn23)=C1c1cn2c3c(cc(F)cc13)CN(C(=O)N1CCCCC1)CC2
Outline: as §1

entospletinib = compound: c1cn2cc(-c3ccc4cn[nH]c4c3)nc(Nc3ccc(N4CCOCC4)cc3)c2n1 [entospletinib]
Outline: as §1

Measured: log2 fold change

STAR (UniProt P49675)
inactive: [1] 0.002 | vorinostat -0.044 | silmitasertib -0.028 | [2] -0.031 | entospletinib -0.103

SSBP2 (UniProt P81877)
inactive: [1] -0.076 | vorinostat -0.038 | silmitasertib -0.398 | [2] -0.117 | entospletinib -0.055

SPTBN4 (UniProt Q9H254)
inactive: [1] 0.013 | vorinostat 0.114 | silmitasertib 0.003 | [2] 0.036 | entospletinib -0.003

SRP19 (UniProt P09132)
inactive: [1] 0.033 | vorinostat -0.137 | silmitasertib 0.082 | [2] 0.05 | entospletinib 0.031

STAG2 isoform 2 (UniProt Q8N3U4)
inactive: [1] -0.008 | vorinostat 0.043 | silmitasertib -0.002 | [2] -0.032 | entospletinib 0

Quoted from the results shown (two entries):
SSBP2 (UniProt P81877)
inactive: [1] -0.076 | vorinostat -0.038 | silmitasertib -0.398 | [2] -0.117 | entospletinib -0.055

SPTBN4 (UniProt Q9H254)
inactive: [1] 0.013 | vorinostat 0.114 | silmitasertib 0.003 | [2] 0.036 | entospletinib -0.003

Remaining list, next part.

SRBD1 (UniProt Q8N5C6)
inactive: [1] 0.013 | vorinostat 0.04 | silmitasertib 0.012 | [2] -0.018 | entospletinib 0.009

SPG11 (UniProt Q96JI7)
inactive: [1] -0.001 | silmitasertib 0.062 | [2] 0.04 | entospletinib -0.098
active: vorinostat -0.399

SPRYD4 (UniProt Q8WW59)
inactive: [1] -0.003 | vorinostat 0.097 | silmitasertib -0.028 | [2] -0.033 | entospletinib -0.013
